# Measured values taken from the supplement of paper PMC6331611.
# ± gives the standard deviation of the averaged measurements. Whole data set: some 1,600 compounds, median “normalized growth (OD600, IQM-normalized) in LPM” near 1, cut for the lowest 2% near 0.014. Some of the results follow.
# Tested on: Salmonella enterica serovar Typhimurium SL1344
# Experiment: normalized growth (OD600, IQM-normalized) in LPM (fraction of plate interquartile mean); higher = more bacterial growth (less inhibition)
# Settings: LPM pH 5.8; 10 µM; 16 h
row,SMILES,normalized growth
1,N=C(N)NCCN1CCCCCCC1,1.02 ± 0.033
2,CC(=O)OCC(=O)[C@H]1CC[C@H]2[C@@H]3CCC4=CC(=O)CC[C@]4(C)[C@H]3CC[C@]12C,0.853 ± 0.017
3,CCCOc1ccc(C(=O)OCCN(CC)CC)cc1N,0.995 ± 0.046
4,CCN(CC)CCOCCOC(=O)C(CC)(CC)c1ccccc1,1.08 ± 0.015
5,CC(=O)OCC(=O)[C@@]1(OC(C)=O)[C@@H](C)C[C@H]2[C@@H]3C[C@H](F)C4=CC(=O)C=C[C@]4(C)[C@@]3(F)[C@@H](O)C[C@@]21C,1.01 ± 0.034
6,CC[C@@H](CO)NCCN[C@@H](CC)CO,1.2 ± 0.13
7,C[C@]1(Cn2ccnn2)[C@H](C(=O)O)N2C(=O)C[C@H]2S1(=O)=O,1.2 ± 0.038
8,Cc1cc(-c2ccc(/N=N/c3ccc4c(S(=O)(=O)O)cc(S(=O)(=O)O)c(N)c4c3O)c(C)c2)ccc1/N=N/c1ccc2c(S(=O)(=O)O)cc(S(=O)(=O)O)c(N)c2c1O,1.62 ± 0.034
9,CNC(=N)NCCC[C@H](N)C(=O)O,1 ± 0.1
10,C=CCSCC1Nc2cc(Cl)c(S(N)(=O)=O)cc2S(=O)(=O)N1 (centres undefined),0.98 ± 0.015
11,CC(=O)N(CC(O)CN(C(C)=O)c1c(I)c(C(=O)NCC(O)CO)c(I)c(C(=O)NCC(O)CO)c1I)c1c(I)c(C(=O)NCC(O)CO)c(I)c(C(=O)NCC(O)CO)c1I (centres undefined),1.05 ± 0.02
12,NC(=O)NS(=O)(=O)c1ccc(N)cc1,0.991 ± 0.017
13,COc1cc(/C=C/C(=O)N2CCCCCCC2)cc(OC)c1OC,0.961 ± 0.025
14,c1ccc(CN(CC2=NCCN2)c2ccccc2)cc1,1.01 ± 0.045
15,OCc1ccccc1O,1.05 ± 0.04
16,COc1c(N2CCNC(C)C2)c(F)cc2c(=O)c(C(=O)O)cn(C3CC3)c12 (centres undefined),0.0158 ± 0.0074
17,O=C(c1ccccc1)c1ccc2n1CCC2C(=O)O (centres undefined),0.952 ± 0.076
18,CN(C)CC(c1ccc(O)cc1)C1(O)CCCCC1 (centres undefined),1.71 ± 0.17
19,NC(=O)[C@@H]1CCCN1C(=O)[C@H](Cc1c[nH]cn1)NC(=O)[C@@H]1CCC(=O)N1,0.999 ± 0.024
20,CC(=O)Oc1cccc(C)c1 [meta-CRESYL ACETATE],0.995 ± 0.048
21,CC(C)(O)c1ccccc1CC[C@@H](SCC1(CC(=O)O)CC1)c1cccc(/C=C/c2ccc3ccc(Cl)cc3n2)c1,1 ± 0.023
22,CCN[C@@H]1C[C@H](N)[C@@H](O[C@H]2OC(CN)=CC[C@H]2N)[C@H](O)[C@H]1O[C@H]1OC[C@](C)(O)[C@H](NC)[C@H]1O,1.07 ± 0.056
23,FC(F)(F)COCC(F)(F)F,1.08 ± 0.036
24,CN1Cc2c(N)cccc2C(c2ccccc2)C1 (centres undefined),1.01 ± 0.044
25,Nc1ccn([C@@H]2CS[C@H](CO)O2)c(=O)n1,1.18 ± 0.095

row,SMILES,normalized growth
1,Cc1cc(N)c2ccccc2[n+]1CCCCCCCCCC[n+]1c(C)cc(N)c2ccccc21,1.07 ± 0.017
2,COc1ccccc1OCC(O)COC(N)=O (centres undefined),1.09 ± 0.097
3,COC(=O)Nc1nc2cc([S+]([O-])c3ccccc3)ccc2[nH]1 (centres undefined),1.09 ± 0.022
4,CCNC(=O)/C=C/c1cccc(Br)c1,1.08 ± 0.035
5,C=CCCCCCCCCC(=O)[O-].C=CCCCCCCCCC(=O)[O-].[Zn+2],1.15 ± 0.041
6,CO/N=C(\C(=O)N[C@@H]1C(=O)N2C(C(=O)OC(C)OC(C)=O)=C(COC(N)=O)CS[C@H]12)c1ccco1 (some centres undefined),1.06 ± 0.24
7,NCCC[C@H](N)CC(=O)N[C@H]1CNC(=O)[C@H]([C@H]2C[C@H](O)NC(N)=N2)NC(=O)/C(=C/NC(N)=O)NC(=O)[C@H](CO)NC(=O)[C@H](CO)NC1=O,0.97 ± 0.066
8,NC(CO)C(=O)NNCc1ccc(O)c(O)c1O (centres undefined),0.816 ± 0.029
9,C[C@H]1COc2c(N3CCN(C)CC3)c(F)cc3c(=O)c(C(=O)O)cn1c23,0.00833 ± 0.00037
10,CN(C)CCCN1c2ccccc2CCc2ccccc21,0.963 ± 0.051
11,Fc1ccc([C@@H]2CCNC[C@H]2COc2ccc3c(c2)OCO3)cc1,0.869 ± 0.11
12,Nc1nc(O)c2ncn(CCC(CO)CO)c2n1,0.9465 ± 0.0074
13,CN(C/C=C/C#CC(C)(C)C)Cc1cccc2ccccc12,0.91 ± 0.018
14,C[N+](C)(C)CCO.[Cl-],1.12 ± 0.027
15,O=C(Oc1cccc2cccnc12)c1ccccc1,0.993 ± 0.039
16,CN1CCC(OC(c2ccccc2)c2ccccc2)CC1,0.994 ± 0.067
17,Cc1cc2nc3c(=O)[nH]c(=O)nc-3n(CC(O)C(O)C(O)COP(=O)(O)O)c2cc1C (centres undefined),0.822 ± 0.056
18,O=C(O)CSCC(=O)NC1CCSC1=O (centres undefined),1 ± 0.069
19,NCC[C@H](O)C(=O)N[C@@H]1C[C@H](N)[C@@H](O[C@H]2O[C@H](CN)[C@@H](O)[C@H](O)[C@H]2O)[C@H](O)[C@H]1O[C@H]1O[C@H](CO)[C@@H](O)[C@H](N)[C@H]1O,0.966 ± 0.015
20,CC(C)C(=O)Nc1ccc([N+](=O)[O-])c(C(F)(F)F)c1,1.11 ± 0.082
21,CC(=O)Oc1cc2c(s1)CCN(C(C(=O)C1CC1)c1ccccc1F)C2 (centres undefined),1.08 ± 0.1
22,Cn1cnc([N+](=O)[O-])c1Sc1ncnc2[nH]cnc12,0.987 ± 0.026
23,OCCN1C[C@H](O)[C@@H](O)[C@H](O)[C@H]1CO,0.993 ± 0.016
24,CC(=O)OCC[N+](C)(C)C,1.05 ± 0.023

# 3 neighbouring entries from above, for reference:
row,SMILES,normalized growth
20,CC(C)C(=O)Nc1ccc([N+](=O)[O-])c(C(F)(F)F)c1,1.11 ± 0.082
21,CC(=O)Oc1cc2c(s1)CCN(C(C(=O)C1CC1)c1ccccc1F)C2 (centres undefined),1.08 ± 0.1
22,Cn1cnc([N+](=O)[O-])c1Sc1ncnc2[nH]cnc12,0.987 ± 0.026
